8 compounds from the supplement of paper PMC10727501 can be followed below.

Some of the results follow. This data set is noisy: repeats of one test often differ as much as different tests do.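 Researchers measured free-swimming zebrafish larvae's O-bend response probability to dark flashes (naive: first five; training: remaining flashes of four 60-flash blocks; test: later 60-flash block) and OMR turning toward alternating leftward/rightward LED motion. Six treated larvae were compared to sixty 0.1% DMSO controls, with |SSMD|≥2 marking a hit.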

Common to all, as to conditions: 10 µM; pre-incubation: 30-90 min
The test system of test [1] is Danio rerio larvae (5 dpf, TLF). In words: OMR-Perf (SSMD vs DMSO vehicle); higher = higher than vehicle (e.g. higher dark-flash O-bend response probability, or better optomotor performance).
Test [2] shares this test system. Description: Prob-Test (SSMD vs DMSO vehicle); higher = higher than vehicle (e.g. higher dark-flash O-bend response probability, or better optomotor performance).
Test [3] shares this test system. In words: Prob-Naive (SSMD vs DMSO vehicle); higher = higher than vehicle (e.g. higher dark-flash O-bend response probability, or better optomotor performance).
The test system is the same in test [4]. Description: Prob-Train (SSMD vs DMSO vehicle); higher = higher than vehicle (e.g. higher dark-flash O-bend response probability, or better optomotor performance).

On to `CNC(=O)[C@H](Cc1c[nH]c2ccccc12)NC(=O)[C@@H](CC(=O)NO)CC(C)C` [Ilomastat (GM6001, Galardin)], for which, in test [1], the OMR-Perf worked out at 0.199. The compound further returned a Prob-Test in test [2] of 0.0353. In test [3], the Prob-Naive is -0.199. This compound also came in with a Prob-Train in test [4] of -0.378.

The compound `c1cc(CN2CCCNCCNCCCNCC2)ccc1CN1CCCNCCNCCCNCC1` [Plerixafor (AMD3100)] registered an OMR-Perf in test [1] of 0.671. Further, the Prob-Test in test [2] amounted to 0.191. Besides, in test [3], the Prob-Naive came out at 0.351. For the same compound, the Prob-Train in test [4] was -0.401.

In test [1], `CC(O)[C@H]1C(=O)N2C(C(=O)[O-])=C(SC3Cn4ncc[n+]4C3)[C@H](C)[C@H]12` (some centres not stated) [Biapenem] gave an OMR-Perf of 0.117. Further, in test [2], the Prob-Test was -0.0321. This compound returned a Prob-Naive in test [3] of -0.0588. In test [4], this compound came in with a Prob-Train of -0.124.

`O=c1cc(N2CCOCC2)oc2c(-c3ccccc3)cccc12` yielded an OMR-Perf in test [1] of -0.0993. In test [2], this compound yielded a Prob-Test of -0.0304. The compound further displayed a Prob-Naive in test [3] of -0.371. Moreover, the Prob-Train in test [4] was -0.574.

Compound `C[C@@H]1O[C@H](O[C@H]2[C@H](O)[C@@H](O)[C@@H](O[C@H]3[C@H](O)[C@@H](O)[C@H](O)O[C@H]3CO)O[C@H]2CO)[C@H](O)[C@@H](O)[C@@H]1N[C@H]1C=C(CO)[C@@H](O)[C@H](O)[C@@H]1O` [Acarbose] came in with an OMR-Perf in test [1] of 0.171. The compound further had a Prob-Test in test [2] of 0.487. This compound also yielded a Prob-Naive in test [3] of -0.49. Moreover, the Prob-Train in test [4] worked out at 0.159.

Consider `CC(C)c1cc2c(N3CCN(C4=NCC(C)(C)S4)CC3)ncnc2s1` [MI-3 (Menin-MLL Inhibitor)], for which the OMR-Perf in test [1] was -0.446. The Prob-Test in test [2] is -0.476. The Prob-Naive in test [3] stood at 0.587. For the same compound, the Prob-Train in test [4] is -0.274.

Take `CC(C)(C)Cn1c(N)nc2ccc(-c3[nH]c(C(C)(C)C)nc3-c3ccc(F)cc3)nc21.CS(=O)(=O)O.CS(=O)(=O)O`: the OMR-Perf in test [1] is -0.0317. In test [2], this compound yielded a Prob-Test of -0.206. In test [3], this compound yielded a Prob-Naive of 0.313. In addition, the Prob-Train in test [4] was -0.0723.

In turn, `O=C(O)c1cc(=O)[nH]c(=O)[nH]1` [Orotic acid (6-Carboxyuracil)] registered an OMR-Perf in test [1] of -0.638. This compound also had a Prob-Test in test [2] of 1.04. The same compound returned a Prob-Naive in test [3] of -0.0925. The compound further returned a Prob-Train in test [4] of 0.374.
